# The list shows a part of the results.
# Biological target: INTS9_Q9NV88_637_GHIVLLQEAETLIQIEEDSTHIICDNDEMLR (UniProt Q9NV88)
# Experiment: probe-labelled cysteine peptide fold change vs DMSO (competition) (log2 fold change); higher = less target engagement (more negative = stronger competition)
# Conditions: THP-1, incubation time: 4 h
# 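Note: competitive profiling in live THP-1 cells: cysteine peptides tagged with an iodoacetamide desthiobiotin (IA-DTB) probe, intensity after compound treatment relative to DMSO-treated cells.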
structure (smiles),measurement,setting,value
Cc1cc(C(=O)N2CCCN(C(=O)CCl)CC2)ccc1-c1ccccc1 [compound 10],probe-labelled cysteine peptide fold change,10 µM,-0.0221
same,probe-labelled cysteine peptide fold change,50 µM,-0.0641

# Source: the supplement of paper PMC12067093, “Discovery and optimisation of a covalent ligand for TRIM25 and its application to targeted protein ubiquitination” (Chemical Science, 2025)
